Test: general procedure: Fmoc solid-phase peptide synthesis; 2-chlorotrityl chloride (CLTR-Cl) resin; Ethyl Indole AM resin
Settings: whole synthesis, 214 nm, scale of the general procedure 1 g resin (2 g for analogue 4)

Substance | final HPLC purity [%]
[DCys6]GnRH | 93
[DLeu6, Pro9-NHEt]GnRH | 94.6
[DLys(Ahx-PDP)6, Pro9-NHEt]GnRH | 97

Reference: PMC10607160 (International Journal of Molecular Sciences, 2023)
